# The list shows a part of the results. Further columns of the screen follow, without active or inactive calls. The list favours compounds with an active or inconclusive main result. Words in brackets tell the shape of the fitted curve; partial curves, single points and poor fits give uncertain potencies.
# Assay: qHTS Assay for Modulators of Lamin A Splicing
# Settings: HeLa LMNA splicing GFP/RFP minigene ratio, 48 h
# Method in brief: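 S3 HeLa stable clones carrying a lamin A-EGFP splicing minigene plus DsRed2 were seeded at 600 cells/well in Opti-MEM with 2% FBS, pin-dosed and incubated 48 h at 37°C. Acumen cytometry (488 nm) gave the GFP/RFP total-intensity ratio.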
# [1] = measured here: GFP splicing reporter channel
# [2] = measured here: RFP viability control channel
Compound,AC50 [1],AC50 [2]
CC1N(C)c2cc(NC(=O)c3ccco3)ccc2C1(C)C (configuration not stated),"35.5 µM [rising, single point]","35.5 µM [rising, single point]"
CNC(=S)Nc1ccc(C23CC4CC(CC(C4)C2)C3)cc1,,"14.1 µM [rising, single point]"
CCCCC(=O)NC(=S)Nc1nnn(CCC)n1,"4.47 µM [rising, full curve, poor fit]",
O=C1C=C(c2cccs2)C[C@H](c2ccccc2)[C@H]1n1nnc([N+](=O)[O-])n1,,"35.5 µM [falling, single point]"
COc1cc(Nc2ccc(C(=O)O)cc2[N+](=O)[O-])cc(OC)c1,"14.1 µM [rising, single point]","17.8 µM [rising, single point]"
O=C(COc1ccc(F)cc1)NC1CC1,,"6.31 µM [falling, single point]"
CC(C)CCN1CCN(Cc2cn[nH]c2C2CCCCC2)CC1CCO (configuration not stated),,"2.82 µM [falling, full curve, poor fit]"
Cc1noc(C)c1-c1ccc2ncnc(NCc3cccs3)c2c1,"1.58 µM [falling, full curve]","12.6 µM [falling, partial curve]"
Cc1ccc(NC(C)C(=O)N/N=C/c2ccc([N+](=O)[O-])s2)cc1 (configuration not stated),,"35.5 µM [rising, single point]"
Cc1ccccc1NCC(=O)N/N=C/c1ccc([N+](=O)[O-])cc1,"0.0891 µM [rising, full curve, poor fit]",
CCOC(=O)c1c(NC(=O)CSc2ncn[nH]2)sc(C)c1C,,"7.94 µM [rising, partial curve, poor fit]"
CCN(CC)CCN(C(=O)c1ccco1)c1nc2ccc(F)cc2s1,,"0.0158 µM [falling, full curve, poor fit]"
CCOc1ccc(-c2cc(C(=O)O)c3ccccc3n2)cc1,,"31.6 µM [rising, single point]"
O=c1c2c(ncn2C2CCCC2)n(Cc2ccccc2)c(=O)n1CCOc1ccccc1,"35.5 µM [rising, single point]","35.5 µM [rising, single point]"
C[C@@]12CCC(=O)C[C@@H]1CC(=O)[C@H]1[C@H]3CCC[C@]3(C)C(=O)C[C@@H]12 (tested in a mixture with another compound),"1.12 µM [falling, single point]",
O=C(C1=C(c2ccccc2)C(=O)c2ccccc2C1=O)c1ccccc1,"0.794 µM [falling, full curve]","8.91 µM [falling, partial curve]"
O=C(Nc1ccccc1-c1nnn(CC(=O)N2CCc3ccccc3C2)n1)C1CCC1,"12.6 µM [rising, single point]","35.5 µM [rising, single point]"
Cc1cccc(OCC(=O)Nc2ccccc2-c2ccccc2)c1,"15.8 µM [rising, single point]","22.4 µM [rising, single point]"

# 3 of these compounds in a different format.
Compound | AC50 [1] | AC50 [2]
O=C1C=C(c2cccs2)C[C@H](c2ccccc2)[C@H]1n1nnc([N+](=O)[O-])n1 |  | 35.5 µM [falling, single point]
COc1cc(Nc2ccc(C(=O)O)cc2[N+](=O)[O-])cc(OC)c1 | 14.1 µM [rising, single point] | 17.8 µM [rising, single point]
O=C(COc1ccc(F)cc1)NC1CC1 |  | 6.31 µM [falling, single point]

# Remaining list, next part:

Compound,AC50 [1],AC50 [2]
Cc1cc(N2CCN(C/C=C/c3ccccc3)CC2)n2ncnc2n1,"1.26 µM [rising, full curve, poor fit]","2.82 µM [rising, full curve]"
CN1CCN(C(=S)c2cn(CCOc3ccccc3)c3ccccc23)CC1,,"0.316 µM [falling, partial curve, poor fit]"
COc1cc2c(cc1OC)C(C)N(C(=O)Cn1ncc3c1-c1cc(C)ccc1OC3)CC2 (configuration not stated),,"28.2 µM [rising, single point]"
COc1ccc(C2NC(=S)NC(O)(C(F)(F)F)C2C(=O)c2cccs2)cc1 (configuration not stated),"0.2 µM [falling, single point]","35.5 µM [rising, single point]"
COc1ccccc1C/C(N)=N/OC(=O)/C=C/c1ccccc1,"0.0178 µM [rising, full curve, poor fit]",
CN(C)S(=O)(=O)c1cccc(C(=O)N(Cc2ccc(F)cc2)Cc2ccco2)c1,"22.4 µM [rising, single point]","35.5 µM [rising, single point]"
Cc1ccc(C)c(N2CCN(S(=O)(=O)c3cc(C(=O)Nc4ccccc4C(F)(F)F)ccc3F)CC2)c1,,"5.01 µM [falling, full curve, poor fit]"
COc1ccc(-n2c(Cc3cccn3C)nnc2SCC(=O)Nc2cc(C)cc(C)c2)cc1,,"10 µM [rising, single point]"
CCOC(=O)c1cc2sccc2n1CC(=O)c1ccc2c(c1)OCCO2,"12.6 µM [rising, single point]",
O=C(Nc1nnc(-c2ccccc2)s1)c1cc(S(=O)(=O)N2CCOCC2)c(Cl)cc1Cl,,"3.55 µM [rising, single point]"
CCOC(=O)CN1C(=O)N[C@@H](c2ccco2)C(C(=O)OC)=C1C,"2.82 µM [rising, partial curve, poor fit]","2.51 µM [rising, single point]"
CN(C)c1ccc(CNC(=O)Cn2c(-c3cccs3)cc3cc(Cl)ccc32)cc1,,"0.0794 µM [rising, partial curve]"
N#Cc1ccccc1Cn1c(=O)n(Cc2ccc(C(=O)NCc3ccco3)cc2)c(=O)c2ccccc21,"14.1 µM [falling, single point]",
Cn1nnnc1SC1CC(=O)N(c2ccccc2)C1=O (configuration not stated),"35.5 µM [falling, single point]","35.5 µM [falling, single point]"
CCN(CC)C(=O)c1sc(NC(=O)C(C)C)c(C#N)c1C,"3.98 µM [rising, partial curve, poor fit]",
c1ccc(-c2ccc3c(c2)c2c4n3CCN=C4CCC2)cc1,,"35.5 µM [falling, single point]"
Cc1[nH]n(-c2ccccc2)c(=S)c1C=NCCCN=Cc1c(C)[nH]n(-c2ccccc2)c1=S,,"35.5 µM [rising, single point]"

# Source: PubChem BioAssay AID1487 (National Center for Advancing Translational Sciences (NCATS), 2009)
